Data from article PMC6445171 (Journal of Enzyme Inhibition and Medicinal Chemistry, 2017).
“Also recorded” adds a separate entry of the source.

Columns and labels:
[1] = tested on: human neuroblastoma cell line (SY5Y); assay: Cytotoxicity, colorimetric MTT assay; type: cell-based; details: at 100 μM, SY5Y neuroblastoma cells
physchem = details: n-octanol/PBS, pH 7.4
[2] = PBS pH 7.4, after 24 h stirring, room temperature

Cl.O=C(CN1CCCCC1)Nc1ccc2oc(-c3ccco3)nc2c1 [Compound F1, N-[2-(Furan-2-yl)-1,3-benzoxazol-5-yl]-2-(piperidin-1-yl)acetamide hydrochloride]
Cytotoxicity in words [1]: without cytotoxicity; also recorded: without being cytotoxic | logD at 60 min (physchem): 2.33 | Solubility PBS, pH 7.4 [2]: 184 μm
